{"sequences": {"note": "Chains of the proteins cited; added tags and fusions are not shown.", "UniProt P35327, whole entry": "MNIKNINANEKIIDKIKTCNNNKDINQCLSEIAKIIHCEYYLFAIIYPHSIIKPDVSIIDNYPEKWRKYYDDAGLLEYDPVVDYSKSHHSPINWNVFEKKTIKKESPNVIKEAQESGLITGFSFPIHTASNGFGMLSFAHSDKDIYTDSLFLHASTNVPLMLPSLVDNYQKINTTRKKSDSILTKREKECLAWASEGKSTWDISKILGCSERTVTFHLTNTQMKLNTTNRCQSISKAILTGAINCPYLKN"}, "source": "patent US7910622B2", "about": "“Modulation of bacterial quorum sensing with synthetic ligands” (Wisconsin Alumni Research Foundation, priority 2007, dated 2011)", "target": "LuxR (Aliivibrio fischeri, UniProt P35327)", "conditions": "LuxR", "note": "For part of its entries the source gives two or more results. This list holds those alone. The source may hold further records. Results that share an entry differ, and nothing given here explains why; some may be repeats, others may stem from another dose, organism or construct than stated.", "data": [{"smiles": "O=C(Cc1cccc([N+](=O)[O-])c1)N[C@H]1CCOC1=O", "note": "[11n, N-(3-nitro-phenylacetanoyl)-L-homoserine lactone]", "values": [{"measurement": "EC50 lower / activity higher relative to OHHL", "result": "ca. 10 fold and 10 fold"}]}]}
